In this series the test system is skin. Description: Sensory assessment of 3-hydroxypropyl caprylate in o/w emulsion on forearm. The settings on record: 1 wt.-% in o/w emulsion vs formulation A1. Format: in vivo, human.

Turning to `CCCCCCCC(=O)OCCCO` [3-hydroxypropyl caprylate], the “Absorption versus placebo (in words)” value is given as “better absorption” and the “Soaping of the formulation versus placebo (in words)” value is given as “less soaping”.

These data come from US12576018B2, “Active agents for skin and hair care with sensory modifying properties” (SYMRISE AG, priority 2019, dated 2026).
